Data reported in PubChem BioAssay AID493014 (National Center for Advancing Translational Sciences (NCATS), 2011).
This is one part of the list. These are further read-outs of the screen, such as a control signal, another cell line or another target. No call is given for them. Most of these compounds were active or inconclusive in the main read-out, so they are no random draw. The note in brackets gives the kind of curve behind each potency; many fits are weak.

Test: qHTS Assay to Find Inhibitors of Chronic Active B-Cell Receptor Signaling
Details: ABC-DLBCL IkBa-CBG/CBR reporter, luminescence ratio (green luciferase fused to IkBa over red control in TMD8 lymphoma cells), 4 h
Method in brief: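 Compounds up to 46 uM were incubated four hours with TMD8 cells whose green CBG68 luciferase is fused to IkappaBalpha; red CBR luminescence normalised the signal, and concentration-effect curves were fitted to fusion, red and ratio data.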

[1] = measured here: CBR red luminescence, cell number
[2] = measured here: IkBa-CBG green luminescence

CCOC(=O)N1CCC(N(CCOC)C(=O)Nc2ccc(Cl)cc2)CC1
AC50 [1]: 3.26 µM [rising, single point]

CCOc1ccc(C(=O)NCCC2=CCCCC2)cc1OCC
AC50 [1]: 10 µM [rising, partial curve]

Cc1ccc(C(=O)Nc2c(N)nc(SCC(=O)Nc3cc(C)on3)[nH]c2=O)cc1
AC50 [1]: 12.6 µM [falling, partial curve]

O=C(O)c1cccc(CN2C(=O)S/C(=C/c3ccccc3[N+](=O)[O-])C2=O)c1
AC50 [1]: 15.8 µM [falling, single point]

CC(=O)c1ccc(OCCOc2ccc(Cl)c3cccnc23)cc1
AC50 [1]: 1.41 µM [rising, partial curve]

O=[N+]([O-])c1cccc(-c2cc(-c3cc(Br)ccc3O)[nH]n2)c1
AC50 [1]: 0.158 µM [rising, full curve]

CSCCC(NS(=O)(=O)c1ccc(C)cc1)C(=O)N1CCN(S(=O)(=O)c2ccc(F)cc2)CC1 (stereo unspecified)
AC50 [1]: 1.16 µM [falling, partial curve, poor fit]

Cc1ccc(C)c(N2CCN(C(=O)c3ccc(CS(=O)(=O)c4ccccc4C)o3)CC2)c1
AC50 [1]: 29.1 µM [falling, single point]

C=C(C)COc1ccc(-c2n[nH]c(C)c2Oc2ccccc2OC)c(O)c1
AC50 [1]: 2.24 µM [rising, single point]

C/C(=N\NC(=S)NC(C)C)c1ccccc1
AC50 [1]: 8.91 µM [rising, partial curve, poor fit] | AC50 [2]: 22.4 µM [falling, single point]

Cc1nn(CCCC(=O)Nc2sc3c(c2C#N)CCC3)c(C)c1[N+](=O)[O-]
AC50 [1]: 5.01 µM [rising, partial curve, poor fit]

O=C(N/C(=N\O)c1ccccc1)Nc1ccc(Cl)cc1
AC50 [1]: 29.1 µM [rising, single point]

O=C(CCC1CCCN(C(=O)c2ccc3cc[nH]c3c2)C1)NCc1ccc(F)c(F)c1 (stereo unspecified)
AC50 [1]: 2.51 µM [rising, full curve, poor fit]

Cc1ccc(C(=O)COC(=O)CCN2C(=O)C3C4CC(C(Br)C4Br)C3C2=O)cc1 (stereo unspecified)
AC50 [1]: 29.1 µM [rising, partial curve, poor fit]

Cc1[nH]c2ccc(C(=O)OCCN(C)C)cc2c1C
AC50 [1]: 6.51 µM [rising, single point]

C=C(C)C(=O)Nc1ccc(NC(C)C)cc1
AC50 [1]: 35.5 µM [rising, single point]

COc1cccc(NC(=O)COC(=O)c2c(C)nn(-c3ccccc3)c2C)c1
AC50 [1]: 7.31 µM [falling, partial curve]

NCCOc1ccc(C2CCCCC2)cc1
AC50 [2]: 3.55 µM [rising, partial curve, poor fit]

COc1cccc(NC(=O)C2CC(=O)N(C)C(=Nc3cccc(F)c3)S2)c1 (stereo unspecified)
AC50 [1]: 22.4 µM [falling, single point]

O=C(Nc1ccc2oc(-c3ccncc3)nc2c1)c1c(F)c(F)c(F)c(F)c1F
AC50 [1]: 0.058 µM [rising, full curve, poor fit]

O=C(N/N=C1\CCCc2c1[nH]c1ccc(Cl)cc21)c1ccncc1
AC50 [1]: 11.2 µM [falling, partial curve]

COc1ccc2nc(C)cc(N/N=C/c3ccccc3)c2c1
AC50 [1]: 1.3 µM [falling, full curve]

NCC(O)(c1ccc(Cl)cc1)c1ccc(Cl)cc1
AC50 [1]: 22.4 µM [falling, partial curve]

COc1ccc(NC(=O)CC(C)c2ccccc2)c([N+](=O)[O-])c1 (stereo unspecified)
AC50 [1]: 2.91 µM [rising, full curve, poor fit]

Cc1ccc(-n2nc3ccc(NC(=O)C(C)C)cc3n2)cc1
AC50 [1]: 0.501 µM [rising, full curve, poor fit]

CN(Cc1ccccc1)C(=O)COC(=O)/C=C/c1ccco1
AC50 [1]: 20 µM [falling, partial curve, poor fit]

COc1ccc(C2NN=C(c3ccc(C)cc3)S2)cc1OC (stereo unspecified)
AC50 [1]: 35.5 µM [falling, single point]

O=S(=O)(c1ccccc1)N(Cc1ccccn1)Cc1ccccn1
AC50 [1]: 12.6 µM [rising, partial curve, poor fit]

CSc1ccc(/C=C/c2ccc3cccc(O)c3n2)cc1
AC50 [1]: 0.562 µM [falling, full curve, poor fit]

O=C(NC1CCOc2ccccc21)c1ccccn1 (stereo unspecified)
AC50 [1]: 22.4 µM [falling, single point]

CCNC(=S)NNc1ccccc1
AC50 [1]: 35.5 µM [falling, single point] | AC50 [2]: 15.8 µM [falling, partial curve]

CCn1c(-c2cc(OC)c(OC)c(OC)c2)n[nH]c1=S
AC50 [1]: 25.9 µM [rising, single point]

CSc1ccc(/C=N/Nc2cccc(C(=O)O)c2)cc1
AC50 [1]: 17.8 µM [falling, partial curve, poor fit]

Cc1cc(C)nc(SCc2ccc(C(=O)NNC(=O)Nc3cccc(Cl)c3)cc2)n1
AC50 [1]: 29.1 µM [falling, single point]

CCC1CCCCN1CCCNC(=O)Cn1ncc2c(C)n(Cc3ccccc3Cl)c(C)c2c1=O (stereo unspecified)
AC50 [1]: 22.4 µM [falling, partial curve, poor fit]

N#Cc1nc(-c2ccc(OCc3ccc(Cl)cc3)cc2)oc1NCCCn1ccnc1
AC50 [1]: 35.5 µM [rising, single point]

Cc1cccc2nc(-c3ccco3)c(Nc3ccccc3)n12
AC50 [1]: 35.5 µM [falling, single point] | AC50 [2]: 15.8 µM [rising, partial curve, poor fit]

COc1ccc(N=CC=C2OC(C)(C)C(C)(C)O2)cc1OC
AC50 [1]: 35.5 µM [rising, single point]

Cc1ccc(N(C(=O)C(F)(F)F)C(C(=O)NC2CCCCC2)c2cccs2)cc1 (stereo unspecified)
AC50 [1]: 10 µM [falling, partial curve, poor fit]

O=C(Nc1ccc(F)c(Cl)c1)c1nsc(Cl)c1Cl
AC50 [1]: 15.8 µM [falling, single point]

Cc1cc(N2C(=O)C3CCC(c4ccccc4)CC3C2=O)no1 (stereo unspecified)
AC50 [1]: 3.55 µM [rising, partial curve, poor fit]

CCOCCCN(C)C1CCN(C(=O)c2oc3ccccc3c2NC(=O)Cc2ccc(F)cc2)CC1
AC50 [1]: 2.82 µM [falling, partial curve, poor fit]

O=C(O)C1=C[C@H](c2csc3ccccc23)C[C@H](OCCCCO)O1
AC50 [1]: 12.6 µM [falling, single point]

COCCNC(=O)CCSc1nc(-c2ccc(OC)cc2)cc(C(F)(F)F)n1
AC50 [1]: 16.4 µM [rising, partial curve, poor fit]

CC(C)N(C(=O)Cn1cc(S(=O)(=O)CC(=O)Nc2ccccc2)c2ccccc21)C(C)C
AC50 [1]: 14.1 µM [falling, partial curve, poor fit]

C=CCn1c(SCC(N)=O)nnc1-c1ccccc1O
AC50 [1]: 0.447 µM [rising, partial curve, poor fit]

CC1Cc2ccccc2N1S(=O)(=O)c1cccc(C(=O)NNC(=O)c2ccccc2F)c1 (stereo unspecified)
AC50 [1]: 4.11 µM [falling, partial curve, poor fit]

C=C(C)CN=C1SC(C(=O)Nc2sc3c(c2C(=O)OC)CCC3)C(N)=C1C(N)=O (stereo unspecified)
AC50 [1]: 23.1 µM [falling, single point]

COc1ccc(CCNC(=O)CSc2ncnc3c2oc2ccccc23)cc1OC
AC50 [1]: 17.8 µM [rising, single point]

COCCN(C(=O)CSc1ncn[nH]1)c1c(N)n(Cc2ccccc2)c(=O)[nH]c1=O
AC50 [1]: 23.1 µM [rising, partial curve, poor fit]

CCOC(=O)c1ccc(-c2ccc(CO)o2)cc1
AC50 [1]: 2.82 µM [rising, partial curve, poor fit]

CC(C)OC(=O)NCCOC(=O)Nc1ccc(Cl)cc1
AC50 [1]: 0.891 µM [rising, full curve, poor fit]

CCc1cc2c(=O)c(-c3ccc4c(c3)OCCO4)coc2cc1OS(C)(=O)=O
AC50 [1]: 20.6 µM [falling, partial curve]

BrC(=C\c1ccccc1)/C=N/n1cnnc1
AC50 [1]: 35.5 µM [falling, single point]

COC(=O)CC1C(=O)NCCN1C(=O)Nc1cccc(Cl)c1 (stereo unspecified)
AC50 [1]: 6.31 µM [rising, single point]

COc1ccc(NC(=O)CN(C)C(=O)/C=C/c2ccc(OCc3ccccc3)cc2)cc1
AC50 [1]: 2.51 µM [falling, partial curve, poor fit]

CCN1CCN(C(=O)c2ccc(CS(=O)(=O)Cc3ccccc3F)o2)CC1
AC50 [1]: 6.51 µM [falling, single point]

O=c1c2ccccc2oc2cc(-c3ccc(CN4CCOCC4)cc3)ccc12
AC50 [1]: 20.6 µM [rising, partial curve, poor fit]

CCCC(=O)Nc1ccc(-c2ccc(NC(=O)CCC)cc2)cc1
AC50 [1]: 0.517 µM [rising, full curve, poor fit]

C=C1c2cc(CC)ccc2NC(=O)N1c1ccc(C)cc1
AC50 [1]: 9.2 µM [rising, partial curve, poor fit]

O=C(c1cccc(-n2cnnn2)c1)N1CC=C(c2ccccc2)CC1
AC50 [1]: 35.5 µM [falling, single point]

O=C(/C=C/c1cccs1)Nc1scc(-c2ccccc2)c1C(=O)O
AC50 [1]: 8.91 µM [falling, partial curve]

CC[C@@]1(c2ccccc2OC)C(=O)N(C(=O)OC)N1C(=O)OC
AC50 [1]: 1.78 µM [falling, full curve, poor fit]
